Assay: quantum yield for lanthanide (Eu3+) luminescence, DCM solution as reference
Format: physicochemical
Conditions: excitation at 410 nm, 20° C.

Eu(nta)3 bpt
increase of quantum yield relative to that of Eu(tta)3dpbt: 30%
quantum yield for the Eu3+ luminescence (propanol solution of DCM as reference, complex itself): 0.52
